Data reported in paper PMC7272575.
These are yes or no findings as the source states them, for the method shown. In cells and extracts the contact can be indirect. Here binding means that the protein was enriched with, or labelled near, the bait; the list need not be complete.

Molecular target: T1, Hspa13 (mouse (endogenous in splenic B cells of C57BL/6 mice)) (UniProt Q8BM72)
T1 sequence: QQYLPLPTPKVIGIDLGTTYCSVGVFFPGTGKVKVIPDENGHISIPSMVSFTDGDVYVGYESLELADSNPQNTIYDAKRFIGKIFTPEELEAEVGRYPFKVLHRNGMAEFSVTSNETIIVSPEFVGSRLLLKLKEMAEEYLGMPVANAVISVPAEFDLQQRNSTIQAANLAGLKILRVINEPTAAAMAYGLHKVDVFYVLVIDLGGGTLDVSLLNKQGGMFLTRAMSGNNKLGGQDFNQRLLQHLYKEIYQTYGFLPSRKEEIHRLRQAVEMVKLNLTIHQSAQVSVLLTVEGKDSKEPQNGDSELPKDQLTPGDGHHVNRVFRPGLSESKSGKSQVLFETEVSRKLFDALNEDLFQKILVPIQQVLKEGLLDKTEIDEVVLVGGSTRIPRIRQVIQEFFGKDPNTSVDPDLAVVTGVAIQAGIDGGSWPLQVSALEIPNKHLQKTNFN
Assay: affinity purification with mass spectrometry; lysate (IP Lysis Buffer) of mouse splenic B220+ B cells stimulated 3 days with 10 ug/ml LPS; anti-Hspa13 antibody and protein A-sepharose, control IgG; washed 6 times with PBS; bands cut from silver-stained SDS-PAGE gel, trypsin, LC-MS/MS

- binding: binds
B1: Bcap31 (protein, UniProt Q61335 1-245)
chain: MSLQWTTVATFLYAEVFAVLLLCIPFISPKRWQKVFKSRLVELVVTYGNTFFVVLIVILVLLVIDAVREILKYDDVTEKVNLQNNPGAMEHFHMKLFRAQRNLYIAGFSLLLSFLLRRLVTLISQQATLLASNEAFKKQAESASEAAKKYMEENDQLKKGAAEDGDKLDIGNTEMKLEENKSLKNDLRKLKDELASTKKKLEKAENEALAMQKQSEGLTKEYDRLLEEHAKLQASVRGPSVKKEE
